Experimental data taken from patent US12517136B2, “Il-17F-specific capture agents, compositions, and methods of using and making” (California Institute of Technology, priority 2015, dated 2026).
Some results were stated once for a whole list of compounds, not compound by compound. Bridge positions count the residues as written; N and C are the ends. Square brackets hold non-standard residues; d marks the D form. Triazole bridges read from a SMILES are 1,4-linked. Peptide text beside a SMILES is read from it. * marks the point of attachment. ξ: configuration not given here. X1 = O=C(CCCCC1SC[C@H]2NC(=O)N[C@@H]12)NCCCOCCOCCOCCCN*; Biotin = O=C1N[C@H]2[C@H](CS[C@H]2CCCCC(=O)*)N1; Lys(N3) = [N-]=[N+]=NCCCC[C@H](N)C(=O)O; Thr(3ξ) = CC(O)[C@H](N)C(=O)O; AEEEA = NCCOCCOCCOCC(=O)O; Pra = C#CC[C@H](N)C(=O)O

Target: T1, IL-17F (Homo sapiens, UniProt Q96PD4)
T1 sequence (Q96PD4 31-163): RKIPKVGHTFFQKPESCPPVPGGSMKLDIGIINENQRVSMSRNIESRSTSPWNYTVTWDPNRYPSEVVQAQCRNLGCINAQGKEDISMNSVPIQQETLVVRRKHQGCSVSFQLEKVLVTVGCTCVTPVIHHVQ
Assay: Sandwich ELISA: immobilized macrocyclic peptide ligand captures full-length His-tagged IL-17F
Type: binding
Set-up: Full-length His-tagged IL-17F protein (ab167911, Abcam); purchased Abcam ab167911
Settings: 2 μM PEG3-biotin ligand on NeutrAvidin plate, His-tagged IL-17F 800 to 0 nM
Method: Sandwich ELISA. A black 96-well NeutrAvidin Coated High Binding Capacity plate (15510, Pierce) was coated with 2 μM macrocyclic peptide ligand in TBS (25 mM Tris-HCl, 150 mM NaCl, pH 7.6) for 2 h at room temperature. Biotinylated monoclonal anti-IL17F (TA319597, Origene) was coated at 4 μg/mL in TBS as a control. The plate was aspirated and then washed with TBS (5×) and Wash Buffer (0.05% (v/v) Tween-20 in PBS, 1×). Full-length His-tagged IL-17F protein (ab167911, Abcam) was serially diluted in Wash Buffer (from 800 to 0 nM) and incubated in the designated microwells for 90 min at room temperature. Microwells were aspirated and subsequently washed with Wash Buffer (10×). […] (ab49746, Abcam) was prepared at 1:10,000 dilution and added to the microwells for 1 h at room temperature. The plate was aspirated and washed with Wash Buffer (5×). AttoPhos® AP Fluorescent Substrate System (S1000, Promega) was employed to develop the microwells. Using an excitation wavelength of 430 nm, fluorescent emission at 535 nm was recorded by Beckman Coulter DTX880 photometer. Titration curves were fit using a four-parameter regression curve fitting program (Origin 8.5) to determine EC50 values.
(§1) For these assays, a dilution series of full-length His-tagged IL-17F protein was captured using the macrocyclic peptide ligands immobilized on a NeutrAvidin-coated plate.
Sandwich ELISA. These assays were performed using the same protocol that was used to evaluate the IL-17F Epitope1 targeted ligands.
as §1

| Compound | EC50 for human IL-17F protein |
| --- | --- |
| NCCCC[C@@H]1NC(=O)[C@H](CCCCN)NC(=O)[C@@H](NC(=O)COCCOCCOCCNC(=O)CCCC[C@@H]2SC[C@@H]3NC(=O)N[C@@H]32)Cc2cn(nn2)CCCC[C@@H](C(N)=O)NC(=O)[C@@H]2CCCN2C(=O)[C@H](Cc2c[nH]c3ccccc23)NC(=O)CNC1=O [Cy(KKGWP), Biotin-PEG3-Cy(KKGWP) (SEQ ID NO:23)] ({Biotin-AEEEA}-[Pra]KKGWP[Lys(N3)]-NH2; triazole 1-7) | 72 to 15 nM |
| C[C@@H]1NC(=O)[C@H](CCCNC(=N)N)NC(=O)[C@H](CCCNC(=N)N)NC(=O)[C@@H](N)Cc2cn(nn2)CCCC[C@@H](C(=O)NCCCOCCOCCOCCCNC(=O)CCCCC2SC[C@H]3NC(=O)N[C@@H]23)NC(=O)[C@H](CO)NC(=O)[C@H](CCC(N)=O)NC1=O (stereo partly shown) [Cy(RRAQS), Cy(RRAQS) (SEQ ID NO:10)-PEG3-biotin] (H-[Pra]RRAQS[Lys(N3)]-X1; triazole 1-7) | 66 to 52 nM |
| CC(O)[C@@H]1NC(=O)[C@H](C)NC(=O)[C@H](CCCNC(=N)N)NC(=O)[C@H](CCCNC(=N)N)NC(=O)[C@@H](N)Cc2cn(nn2)CCCC[C@@H](C(=O)NCCCOCCOCCOCCCNC(=O)CCCCC2SC[C@H]3NC(=O)N[C@@H]23)NC(=O)[C@H](CO)NC1=O (stereo partly shown) [Cy(RRATS), Cy(RRATS) (SEQ ID NO:9)-PEG3-biotin] (H-[Pra]RRA[Thr(3ξ)]S[Lys(N3)]-X1; triazole 1-7) | 66 to 52 nM |
| CC1N[C@@H](CCCCN)C(=O)N[C@H](C(N)=O)CCCCn2cc(nn2)C[C@H](NC(=O)COCCOCCOCCNC(=O)CCCC[C@@H]2SC[C@@H]3NC(=O)N[C@@H]32)C(=O)N[C@@H](CCCNC(=N)N)C(=O)N[C@@H](CO)C(=O)N[C@@H](Cc2ccc(O)cc2)C(=O)N[C@H]1CC(N)=O (stereo partly shown) [Cy(RSYNK), Biotin-PEG3-Cy(RSYNK) (SEQ ID NO:28)] | 72 to 15 nM |
